# PubChem BioAssay AID1159578 – Peter MacCallum Cancer Centre | 2015
# Test: 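Knock-downs that alter how fast lymphatic endothelial cells migrate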 (primary screen)
# Cells: human lymphatic endothelial cells
# Reagents: siRNA pool against human genes, 40 nM
# Duration: 48 h after transfection
# Measurement: 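Cells stained with dye and imaged after a scratch; covered wound area and nuclei counted, duplicates averaged, migration set against mock wells and turned into a robust z-score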
# Direction: migration robust z-score: higher = faster migration into the scratch; migration relative to mock: higher = more scratch area covered than mock; nuclei per well: higher = more cells in the well
# Hit rule: 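Migration changed when robust z exceeds 2 or falls below -2 and mean nuclei number is at least 3300; otherwise not called changed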
# Calls: active = migration changed; inactive = no migration change, or too few cells
# The whole screen tested about 18,000 reagents; shown is a part drawn at random. Over the whole deposit, about 1,030 (5.7%) were called active. 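Inactive calls also include pools with fewer than 3300 nuclei, whose migration was not assessed.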 Raw values vary from plate to plate and are shown uncorrected. Unmarked entries are inactive.
target,migration robust z-score,migration class with cell-count check,migration relative to mock,"nuclei per well, duplicate mean"
TTK (TTK protein kinase),-2.62,under 3300 nuclei; migration not judged,0.3,1984
RAE1 (ribonucleic acid export 1),1.04,migration z between -2 and 2; enough cells,1,5493
OLIG2 (oligodendrocyte transcription factor 2),-1.68,migration z between -2 and 2; enough cells,0.48,6584
ADCY9 (adenylate cyclase 9),-0.16,migration z between -2 and 2; enough cells,0.84,6496
SPACA4 (sperm acrosome associated 4),-0.26,migration z between -2 and 2; enough cells,0.82,5382
C14orf181 (retired record),0.53,migration z between -2 and 2; enough cells,1.02,4790
LURAP1 (leucine rich adaptor protein 1),-0.78,migration z between -2 and 2; enough cells,0.68,6078
SERPINB10 (serpin family B member 10),1.29,migration z between -2 and 2; enough cells,1.22,6139
DTX3L (deltex E3 ubiquitin ligase 3L),-0.16,migration z between -2 and 2; enough cells,0.77,6060
SKOR1 (SKI family transcriptional corepressor 1),0.42,migration z between -2 and 2; enough cells,1,6280
"PDF (peptide deformylase, mitochondrial)",0.08,migration z between -2 and 2; enough cells,0.82,5428
KRTCAP2 (keratinocyte associated protein 2),0.55,migration z between -2 and 2; enough cells,1.02,5718
CHD1 (chromodomain helicase DNA binding protein 1),-0.16,migration z between -2 and 2; enough cells,0.77,6239
IDH3A (isocitrate dehydrogenase (NAD(+)) 3 catalytic subunit alpha),0.86,migration z between -2 and 2; enough cells,0.97,6406
TRIM52 (tripartite motif containing 52),1.01,migration z between -2 and 2; enough cells,1,5403
ARRB2 (arrestin beta 2),1.57,migration z between -2 and 2; enough cells,1.29,6624
MED18 (mediator complex subunit 18),0.17,migration z between -2 and 2; enough cells,0.93,6306
PLGLB1 (plasminogen like B1),0.2,migration z between -2 and 2; enough cells,0.94,5114
MBD3L2 (methyl-CpG binding domain protein 3 like 2),0.27,migration z between -2 and 2; enough cells,0.96,6084
PP2D1 (protein phosphatase 2C like domain containing 1),0.6,migration z between -2 and 2; enough cells,0.92,5956
POU2F3 (POU class 2 homeobox 3),0.36,migration z between -2 and 2; enough cells,0.88,6198
NMS (neuromedin S),-1.28,migration z between -2 and 2; enough cells,0.56,4691
NADSYN1 (NAD synthetase 1),-0.62,migration z between -2 and 2; enough cells,0.68,5392
MSANTD4 (Myb/SANT DNA binding domain containing 4 with coiled-coils),1.03,migration z between -2 and 2; enough cells,1.16,6106
EDF1 (endothelial differentiation related factor 1),0.36,migration z between -2 and 2; enough cells,0.88,5584
PANK2 (pantothenate kinase 2),-1.22,migration z between -2 and 2; enough cells,0.57,3589
RXYLT1 (ribitol xylosyltransferase 1),-1.68,migration z between -2 and 2; enough cells,0.44,3822
HAPLN2 (hyaluronan and proteoglycan link protein 2),-1.12,migration z between -2 and 2; enough cells,0.6,5934
POFUT3 (protein O-fucosyltransferase 3),-2.09,under 3300 nuclei; migration not judged,0.34,2714
CPNE6 (copine 6),-0.48,migration z between -2 and 2; enough cells,0.76,5494
DERA (deoxyribose-phosphate aldolase),-0.7,migration z between -2 and 2; enough cells,0.67,4571
IGSF10 (immunoglobulin superfamily member 10),-0.84,migration z between -2 and 2; enough cells,0.67,4799
RBP5 (retinol binding protein 5),-0.23,migration z between -2 and 2; enough cells,0.82,5699
CNTN2 (contactin 2),0.29,migration z between -2 and 2; enough cells,0.96,6046
TMEM201 (transmembrane protein 201),-1.68,migration z between -2 and 2; enough cells,0.45,5412
NMT2 (N-myristoyltransferase 2),-1.25,migration z between -2 and 2; enough cells,0.56,6628
ENO3 (enolase 3),0.13,migration z between -2 and 2; enough cells,0.83,6344
PTPN6 (protein tyrosine phosphatase non-receptor type 6),-1.66,migration z between -2 and 2; enough cells,0.48,6032
CAMP (cathelicidin antimicrobial peptide),0.02,migration z between -2 and 2; enough cells,0.9,5796
ZNF157 (zinc finger protein 157),0.97,migration z between -2 and 2; enough cells,1.13,5220
LRCH1,3.01 (active),migration z above 2; enough cells,1.66,6197
DMRTC1B (DMRT like family C1B),1.41,migration z between -2 and 2; enough cells,1.25,6182
L3HYPDH (trans-L-3-hydroxyproline dehydratase),-0.29,migration z between -2 and 2; enough cells,0.75,4540
"JMY (junction mediating and regulatory protein, p53 cofactor)",-1.83,migration z between -2 and 2; enough cells,0.41,4882
SMARCAL1 (SNF2 related chromatin remodeling annealing helicase 1),-1.19,migration z between -2 and 2; enough cells,0.57,4824
CDC50A (cell division cycle 50 P4-ATPase accessory subunit A),0.03,migration z between -2 and 2; enough cells,0.9,6640
NFKBIE (NFKB inhibitor epsilon),-1.84,migration z between -2 and 2; enough cells,0.45,5384
RCL1 (RNA terminal phosphate cyclase like 1),0.42,migration z between -2 and 2; enough cells,0.88,5537
ADCY2 (adenylate cyclase 2),0.06,migration z between -2 and 2; enough cells,0.82,6142
DYNLRB2 (dynein light chain roadblock-type 2),-0.04,migration z between -2 and 2; enough cells,0.88,5971
UBE2O (ubiquitin conjugating enzyme E2 O),-2.75 (active),migration z below -2; enough cells,0.27,4939
PSAT1 (phosphoserine aminotransferase 1),-1.12,migration z between -2 and 2; enough cells,0.59,6418
TBX3 (T-box transcription factor 3),0.52,migration z between -2 and 2; enough cells,0.9,5566
OAS2 (2'-5'-oligoadenylate synthetase 2),-0.96,migration z between -2 and 2; enough cells,0.62,4346
MLPH (melanophilin),1.11,migration z between -2 and 2; enough cells,1.17,6842
AHI1 (Abelson helper integration site 1),-1.23,migration z between -2 and 2; enough cells,0.56,5260
PCDHB8 (protocadherin beta 8),0.12,migration z between -2 and 2; enough cells,0.92,7222

Ordered by “migration robust z-score” (descending): 5 of the entries above.
target,migration robust z-score,migration class with cell-count check,migration relative to mock,"nuclei per well, duplicate mean"
PP2D1 (protein phosphatase 2C like domain containing 1),0.6,migration z between -2 and 2; enough cells,0.92,5956
POU2F3 (POU class 2 homeobox 3),0.36,migration z between -2 and 2; enough cells,0.88,6198
MBD3L2 (methyl-CpG binding domain protein 3 like 2),0.27,migration z between -2 and 2; enough cells,0.96,6084
PLGLB1 (plasminogen like B1),0.2,migration z between -2 and 2; enough cells,0.94,5114
NMS (neuromedin S),-1.28,migration z between -2 and 2; enough cells,0.56,4691
